Results taken from patent publication US9353110B2, “Fused heterocyclic compound” (Sumitomo Chemical Company, Limited, priority 2011, dated 2016).
Some entries share one result that the patent states for a list of compounds. For at least one compound, name, drawing or mass did not settle the structure.

What was measured:
Format in all cases: in vivo
[1] = tested on: Aphis gossypii; assay: Test Example 2: drench at foot of cucumber seedling against Aphis gossypii; settings: 500 ppm, 5 ml drenched at foot of cucumber seedling, kept 7 days, inoculated with about 30 Aphis gossypii, examined after further 6 days
[2] = tested on: Nilaparvata lugens; assay: Test Example 4: drench at foot of rice seedling against Nilaparvata lugens; settings: 500 ppm, 5 ml drenched at foot of rice seedling, kept 7 days, 20 third-fourth instar larvae released, examined after further 6 days
[3] = tested on: Bemisia tabaci; assay: Test Example 5: spray on tomato seedling against Bemisia tabaci; settings: 500 ppm, 20 ml/cup sprayed on tomato seedling with hatched instar larvae, after 7 days
[4] = tested on: Aphis gossypii; assay: Test Example 1: foliar spray on cucumber seedling against Aphis gossypii; settings: 500 ppm active ingredient, 20 ml sprayed on cucumber seedling inoculated with about 30 Aphis gossypii, 6 days after spraying
[5] = tested on: Nilaparvata lugens; assay: Test Example 3: spray on rice seedling against Nilaparvata lugens; settings: 500 ppm, 10 ml sprayed on rice seedling, 20 third-fourth instar larvae released, after 6 days

| Compound | control value [1] [%] | control value [2] [%] | control value [3] [%] | control value [4] [%] | control value [5] [%] |
| --- | --- | --- | --- | --- | --- |
| CCS(=O)(=O)c1cc(C(F)(F)F)cnc1-c1nc2cc(S(=O)(=O)C(F)(F)F)cnc2n1C [compound 25] | ≥ 90 |  |  |  |  |
| CCSc1cccnc1-c1nc2cc(C(F)(F)C(F)(F)F)cnc2n1C [compound 6] |  | ≥ 90 | ≥ 90 |  |  |
| CCS(=O)(=O)c1cc(C(F)(F)F)c[n+]([O-])c1-c1nc2cc(C(F)(F)F)cnc2n1C [compound 51] | ≥ 90 |  |  | ≥ 90 |  |
| CCSc1cc(C(F)(F)F)cnc1-c1nc2cc(SC(F)(F)F)cnc2n1C [compound 28] |  |  |  | ≥ 90 |  |
| CCS(=O)(=O)c1cc(C(F)(F)F)cnc1-c1nc2cc(C(F)(F)F)c(C(N)=O)nc2n1C [compound 522] | ≥ 90 |  |  |  |  |
| CCSc1cccnc1-c1nc2cc(C(F)(F)F)ccc2n1C [compound 30] | ≥ 90 |  |  | ≥ 90 | ≥ 90 |
| CCS(=O)(=O)c1cccnc1-c1nc2cc(C(F)(F)F)cc(C#N)c2n1C [compound 138] | ≥ 90 | ≥ 90 |  | ≥ 90 | ≥ 90 |
| CCSc1cccnc1-c1nc2cc(C(F)(F)F)cnc2[nH]1 [compound 76] |  |  |  | ≥ 90 |  |
| CCS(=O)(=O)c1cccnc1-c1nc2cc(C(F)(F)C(F)(F)F)cnc2n1C [compound 8] | ≥ 90 | ≥ 90 | ≥ 90 |  |  |
| CCS(=O)(=O)c1cc(C(F)(F)F)cnc1-c1nc2cc(C(F)(F)F)c(C#N)nc2n1C [compound 508] |  | ≥ 90 |  | ≥ 90 |  |
| CCS(=O)(=O)c1cc(C(F)(F)F)cnc1-c1nc2cc(C(F)(F)F)c[n+]([O-])c2n1C [compound 48] | ≥ 90 | ≥ 90 |  | ≥ 90 |  |
| CCSc1cccnc1-c1nc2cc(SC(F)(F)F)cnc2n1C [compound 13] | ≥ 90 |  | ≥ 90 |  |  |
| CCSc1cccnc1-c1nc2cc(C(F)(F)F)cnc2n1CC(F)(F)F [compound 65] |  |  |  | ≥ 90 |  |
| CCS(=O)(=O)c1cccnc1-c1nc2cc(OC(F)(F)F)ccc2n1C [compound 50] | ≥ 90 | ≥ 90 |  | ≥ 90 | ≥ 90 |
| CCS(=O)(=O)c1cc(C(F)(F)F)cnc1-c1nc2cc(C(F)(F)C(F)(F)F)cnc2n1C [compound 19] | ≥ 90 | ≥ 90 |  |  |  |
| CCSc1cccnc1-c1nc2cc(C(F)(F)F)cnc2n1C [compound 1] | ≥ 90 | ≥ 90 |  | ≥ 90 | ≥ 90 |
| CCS(=O)(=O)c1cccnc1-c1nc2cc(C(F)(F)F)cnc2o1 [compound 81] | ≥ 90 | ≥ 90 |  | ≥ 90 | ≥ 90 |
| CCS(=O)(=O)c1cccnc1-c1nc2cc(C(F)(F)F)c[n+]([O-])c2s1 [compound 22] |  | ≥ 90 |  | ≥ 90 | ≥ 90 |
| CCS(=O)(=O)c1cccnc1-c1nc2cc(C(F)(F)F)c(OC)cc2n1C [compound 56] |  |  |  | ≥ 90 |  |
| CCS(=O)(=O)c1ccc[n+]([O-])c1-c1nc2cc(C(F)(F)C(F)(F)F)ccc2n1C [compound 47] | ≥ 90 |  | ≥ 90 |  |  |
| CCS(=O)(=O)c1cc(C(F)(F)F)cnc1-c1nc2cc(C(=O)OC)c[n+]([O-])c2n1C [compound 70] |  |  |  | ≥ 90 |  |
| CC[S+]([O-])c1cccnc1-c1nc2cc(C(F)(F)F)cc(C#N)c2n1C (stereo not drawn) [compound 526] |  |  |  | ≥ 90 |  |

| Compound | control value [1] [%] | control value [2] [%] | control value [3] [%] | control value [4] [%] | control value [5] [%] |
| --- | --- | --- | --- | --- | --- |
| CC[S+]([O-])c1cc(C(F)(F)F)cnc1-c1nc2cc(C(F)(F)C(F)(F)F)cnc2n1C (stereo not drawn) [compound 18] |  | ≥ 90 | ≥ 90 | ≥ 90 |  |
| CCS(=O)(=O)c1cc(C(F)(F)F)c[n+]([O-])c1-c1nc2cc(C(F)(F)F)c[n+]([O-])c2n1C [compound 512] | ≥ 90 | ≥ 90 |  |  |  |
| CCS(=O)(=O)c1cccnc1-c1nc2cc(S(=O)(=O)C(F)(F)F)cnc2n1C [compound 16] | ≥ 90 | ≥ 90 | ≥ 90 | ≥ 90 |  |
| CCSc1cccnc1-c1nc2cc(C(F)(F)F)ccc2o1 [compound 84] |  |  |  | ≥ 90 | ≥ 90 |
| CCS(=O)(=O)c1cccnc1-c1nc2cc(C(F)(F)F)cc(OC)c2n1C [compound 144] | ≥ 90 | ≥ 90 |  | ≥ 90 | ≥ 90 |
| CCS(=O)(=O)c1cccnc1-c1nc2cc(SC(F)(F)F)ccc2n1C [compound 63] |  |  | ≥ 90 |  |  |
| CCS(=O)(=O)c1cccnc1-c1nc2cc(C(F)(F)C(F)(F)F)ccc2n1C [compound 27] | ≥ 90 | ≥ 90 | ≥ 90 |  |  |
| CCS(=O)(=O)c1cccnc1-c1nc2cc(I)cnc2n1C [compound 190] |  |  |  | ≥ 90 |  |
| CCS(=O)(=O)c1cccnc1-c1nc2cc(C(F)(F)F)ccc2o1 [compound 85] | ≥ 90 | ≥ 90 |  | ≥ 90 | ≥ 90 |
| CC[S+]([O-])c1cccnc1-c1nc2cc(SC(F)(F)F)ccc2n1C (stereo not drawn) [compound 62] | ≥ 90 | ≥ 90 |  | ≥ 90 | ≥ 90 |
| CCSc1cccnc1-c1nc2cc(I)cnc2n1C [compound 9] |  |  |  | ≥ 90 | ≥ 90 |
| CCS(=O)(=O)c1cccnc1-c1nc2cc(C(F)(F)F)cnc2s1 [compound 12] |  | ≥ 90 |  | ≥ 90 | ≥ 90 |
| CCS(=O)(=O)c1cccnc1-c1nc2cc(C(F)(F)F)cc(S(=O)(=O)c3ccccc3)c2n1C [compound 517] |  |  |  | ≥ 90 |  |
| CCS(=O)(=O)c1cccnc1-c1nc2cc(C(F)(F)F)ccc2n1C [compound 32] | ≥ 90 | ≥ 90 |  | ≥ 90 | ≥ 90 |
| CCSc1cccnc1-c1nc2cc(C(F)(F)F)cc(C#N)c2n1C [compound 519] |  | ≥ 90 |  |  | ≥ 90 |
| CCSc1nc2c(cc1C(F)(F)F)nc(-c1ncccc1S(=O)(=O)CC)n2C [compound 90] | ≥ 90 |  |  |  |  |
| CCS(=O)(=O)c1cc(C(F)(F)F)cnc1-c1nc2cc(C(F)(F)F)cnc2[nH]1 [compound 79] |  |  |  | ≥ 90 |  |
| CCS(=O)(=O)c1cc(C(F)(F)F)cnc1-c1nc2cc(C(=O)OC)cnc2n1C [compound 69] |  |  |  | ≥ 90 |  |
| CCS(=O)(=O)c1cc(C(F)(F)F)cnc1-c1nc2cc(C(F)(F)C(F)(F)F)ccc2n1C [compound 40] |  |  |  | ≥ 90 |  |
| CCS(=O)(=O)c1cc(C(OC)(OC)OC)cnc1-c1nc2cc(C(F)(F)C(F)(F)F)cnc2n1C [compound 528] | ≥ 90 |  | ≥ 90 | ≥ 90 |  |
| CCS(=O)(=O)c1cccnc1-c1nc2cc(C(F)(F)F)cc(Br)c2n1C [compound 46] |  |  |  | ≥ 90 |  |
